The values below come from patent US20250163117A1 (CURE GENETICS, published 2025).

For assay [1], the target named is T1, Human IL-2Rβ&IL-2Rα&IL-2Rγ protein (human, UniProt P14784 27-239; P01589 22-217; P31785 23-262, limits assumed).
T1 construct: Trimeric receptor protein used as SPR ligand; also called IL-2Rαβγ; Human IL-2RB&IL-2RA&IL-2RG
T1 sequence (looked up) 1: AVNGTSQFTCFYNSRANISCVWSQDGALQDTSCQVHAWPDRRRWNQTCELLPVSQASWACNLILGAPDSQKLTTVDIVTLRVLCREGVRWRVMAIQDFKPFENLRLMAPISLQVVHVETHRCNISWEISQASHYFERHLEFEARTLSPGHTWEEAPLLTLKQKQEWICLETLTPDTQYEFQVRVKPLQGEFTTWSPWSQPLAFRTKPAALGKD
T1 sequence (looked up) 2: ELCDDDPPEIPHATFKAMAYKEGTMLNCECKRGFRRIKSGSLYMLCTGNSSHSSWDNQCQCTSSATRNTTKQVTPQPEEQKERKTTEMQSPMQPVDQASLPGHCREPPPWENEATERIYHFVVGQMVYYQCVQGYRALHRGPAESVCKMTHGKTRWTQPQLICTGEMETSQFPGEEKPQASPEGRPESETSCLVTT
T1 sequence (looked up) 3: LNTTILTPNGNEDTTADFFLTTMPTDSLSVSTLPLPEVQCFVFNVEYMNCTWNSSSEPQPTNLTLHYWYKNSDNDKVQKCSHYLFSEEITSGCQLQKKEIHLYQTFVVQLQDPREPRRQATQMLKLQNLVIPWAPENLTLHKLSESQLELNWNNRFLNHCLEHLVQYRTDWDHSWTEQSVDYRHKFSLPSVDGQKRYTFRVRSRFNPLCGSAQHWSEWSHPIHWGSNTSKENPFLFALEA
Nature of the assay: SPR (Biacore). In general terms: SPR reads the build-up and loss of mass on a sensor chip optically.

Assay [2] has as its target T1, Human IL-2Rβ&IL-2Rα&IL-2Rγ protein. Nature of the assay: SPR (Biacore, receptor on CM5 chip, IL-2 as analyte).

These are yes or no findings as the source states them, for the method shown. Some results given as binding are weak or reduced against the parent protein; the word gives no strength.

B1: CP-trIL-2 012 (ligand)
chain: PTSSSTKKTQLQLEHLLLDLQMILNGINNYKNPLRPRDLISNINVIVLELKGSETTELKHLQSLEEELKDLEEVLNLAQSKNFHTIVEFLNRWITFSQSIISTLT
notes: H1-H3-H2-H4; loops 1 and 2 removed; de-Ala1, C58S, C125S, P65D
On to B1, for which the binding result in assay [1] and in assay [2] was “binds” in each case.
